The results in this text go back to publication PMC3963969.

The target in one test is T1, HA-Crb2 (S. pombe) (UniProt P87074).
T1 sequence: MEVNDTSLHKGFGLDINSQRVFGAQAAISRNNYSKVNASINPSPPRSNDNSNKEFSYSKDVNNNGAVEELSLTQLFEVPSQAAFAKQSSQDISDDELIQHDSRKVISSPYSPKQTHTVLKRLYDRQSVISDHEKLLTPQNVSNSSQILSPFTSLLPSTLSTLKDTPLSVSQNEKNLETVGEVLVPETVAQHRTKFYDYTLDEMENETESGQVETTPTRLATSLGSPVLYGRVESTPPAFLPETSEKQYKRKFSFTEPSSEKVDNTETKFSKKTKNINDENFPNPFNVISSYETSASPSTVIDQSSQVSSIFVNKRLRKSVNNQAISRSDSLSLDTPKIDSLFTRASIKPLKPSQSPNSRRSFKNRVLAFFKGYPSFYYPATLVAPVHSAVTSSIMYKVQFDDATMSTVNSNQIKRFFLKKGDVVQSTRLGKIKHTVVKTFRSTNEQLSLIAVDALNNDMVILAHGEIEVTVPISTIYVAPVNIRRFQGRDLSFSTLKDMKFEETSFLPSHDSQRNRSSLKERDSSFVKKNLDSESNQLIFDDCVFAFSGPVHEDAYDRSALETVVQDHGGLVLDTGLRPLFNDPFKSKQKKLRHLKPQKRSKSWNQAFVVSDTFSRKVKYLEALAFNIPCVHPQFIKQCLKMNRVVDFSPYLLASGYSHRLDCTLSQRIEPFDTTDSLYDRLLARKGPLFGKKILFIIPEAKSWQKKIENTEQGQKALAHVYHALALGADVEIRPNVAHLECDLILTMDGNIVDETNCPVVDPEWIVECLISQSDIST
As to the kind of experiment: pull-down; purified GST-Rad4 fragments (0.5 μM) incubated with HA-Rad9 or HA-Crb2 bound to anti-HA antibody beads, 4°C, 2 h, 20 mM TrisHCl, 150 mM NaCl, 0.02% NP-40, 1 mM DTT, 10% glycerol, pH 7.5; bound fragments blotted with anti-GST antibodies; both purified.

Test [1] deals with T2, HA-Rad9, phosphorylated at Thr412 (S. pombe) (UniProt P26306).
T2 sequence (chain, phosphothreonine at 412 (detected with the phospho-specific antibody)): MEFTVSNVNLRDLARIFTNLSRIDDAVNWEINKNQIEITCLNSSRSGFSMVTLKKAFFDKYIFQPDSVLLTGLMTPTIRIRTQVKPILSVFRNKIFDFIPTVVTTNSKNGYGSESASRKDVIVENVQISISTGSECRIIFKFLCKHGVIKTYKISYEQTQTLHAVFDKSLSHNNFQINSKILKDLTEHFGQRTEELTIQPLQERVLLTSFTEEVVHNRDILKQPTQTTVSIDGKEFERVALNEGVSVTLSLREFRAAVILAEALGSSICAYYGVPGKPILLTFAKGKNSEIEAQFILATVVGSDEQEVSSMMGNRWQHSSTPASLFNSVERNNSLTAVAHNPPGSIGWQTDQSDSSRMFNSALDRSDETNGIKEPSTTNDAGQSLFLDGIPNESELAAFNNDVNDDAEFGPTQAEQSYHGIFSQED
The description is as above.

These are yes or no findings as the source states them, for the method shown. A result given as binding can be weak or reduced; the word gives no strength. Sequences can lack the tags named with a protein.

Take “GST-tagged Rad4 fragment b (first pair of BRCT repeats) (S. pombe) (domain or fragment)”: the binding result with HA-Crb2 (S. pombe) was “binds”.
As to “GST-tagged Rad4 fragment d (contains the second pair of BRCT repeats) (S. pombe) (domain or fragment)”, the binding entry in test [1] is “binds”.
For “GST-tagged Rad4 fragment e (contains the second pair of BRCT repeats) (S. pombe) (domain or fragment)”, the binding result was “binds weakly” with HA-Crb2 (S. pombe) and “binds” in test [1].
